The record followed here is PMC7550284, “The functional cooperation of 5-HT1A and mGlu4R in HEK-293 cell line” (Pharmacological Reports, 2020).

Protein sequences, listed by entry. Tags and fused reporters are not part of them. Lines headed by an entry give the natural chain unless they say otherwise; changes in a name come on top. Residues count along the entry.
UniProt Q14833, residues 33-912: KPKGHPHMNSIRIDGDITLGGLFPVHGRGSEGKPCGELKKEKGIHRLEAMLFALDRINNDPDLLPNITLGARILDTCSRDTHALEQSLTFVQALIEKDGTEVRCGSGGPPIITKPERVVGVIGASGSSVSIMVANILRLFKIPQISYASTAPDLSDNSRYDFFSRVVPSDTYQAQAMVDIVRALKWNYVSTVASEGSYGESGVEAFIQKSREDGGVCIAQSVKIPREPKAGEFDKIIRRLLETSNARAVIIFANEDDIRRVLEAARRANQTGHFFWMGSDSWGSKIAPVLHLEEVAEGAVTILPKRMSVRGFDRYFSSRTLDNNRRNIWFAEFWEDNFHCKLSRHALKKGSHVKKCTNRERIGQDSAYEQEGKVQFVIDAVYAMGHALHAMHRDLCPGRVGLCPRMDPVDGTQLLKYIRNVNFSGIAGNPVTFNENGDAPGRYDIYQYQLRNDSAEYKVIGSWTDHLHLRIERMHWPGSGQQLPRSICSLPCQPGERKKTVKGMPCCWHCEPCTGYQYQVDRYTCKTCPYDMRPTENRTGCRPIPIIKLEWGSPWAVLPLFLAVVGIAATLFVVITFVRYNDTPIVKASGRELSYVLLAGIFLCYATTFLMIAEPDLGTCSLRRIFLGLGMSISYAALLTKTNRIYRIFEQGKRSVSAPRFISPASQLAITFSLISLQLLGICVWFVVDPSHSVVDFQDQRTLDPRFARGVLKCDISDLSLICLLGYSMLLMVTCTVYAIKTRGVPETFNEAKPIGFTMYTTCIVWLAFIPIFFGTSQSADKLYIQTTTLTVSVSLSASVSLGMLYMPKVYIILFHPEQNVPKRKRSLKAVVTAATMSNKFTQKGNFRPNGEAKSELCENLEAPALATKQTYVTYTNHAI

No constants are given. Whether binding was seen depends on the method and setting. Binding seen in cells or lysates may run through a third protein. Some entries that bind do so weakly or less than the wild type.

This assay addresses human metabotropic glutamate receptor 4 (GRM4, variant 1) with the SNAP-tag inserted after the 28th amino acid (human) (UniProt Q14833). The assay is described as follows: FRET or BRET; homogeneous time-resolved FRET on intact T-REx 293 cells expressing one SNAP-tagged receptor; labelled with 100 nM Snap-Tb (donor) and 150 nM Snap-Green (acceptor), 2 h at 37 °C; read in Hanks-HEPES buffer, 20,000 cells per well; controls: buffer, nonlabeled, single-labeled cells, 1:1 mix of separately labeled cells. (Bioluminescence resonance energy transfer reports proximity on the nanometre scale.)

On to “human metabotropic glutamate receptor 4 (GRM4, variant 1) with the SNAP-tag inserted after the 28th amino acid (from UniProt Q14833-1 33-912)”, for which the binding result is “binds”.
